Results as given in ChEMBL document CHEMBL4316593 (Eur J Med Chem, 2019).
This continues a long series; more values of the same kind are listed elsewhere.

Columns and labels:
Format in all cases: cell-based
Settings in all cases: U-87MG ATCC
[1] = Inhibition of RTK/PI3K/AKT/mTOR signaling in human U87 cells assessed as down regulation of GBP2 gene expression at cytotoxic IC50 measured after 48 hrs relative to control
[2] = Inhibition of RTK/PI3K/AKT/mTOR signaling in human U87 cells assessed as down regulation of HECW2 gene expression at cytotoxic IC50 measured after 48 hrs relative to control
[3] = Inhibition of RTK/PI3K/AKT/mTOR signaling in human U87 cells assessed as down regulation of BCL2L12 gene expression at cytotoxic IC50 measured after 48 hrs relative to control
[4] = Inhibition of RTK/PI3K/AKT/mTOR signaling in human U87 cells assessed as down regulation of CNOT4 gene expression at cytotoxic IC50 measured after 48 hrs relative to control
[5] = Inhibition of RTK/PI3K/AKT/mTOR signaling in human U87 cells assessed as down regulation of HCCS gene expression at cytotoxic IC50 measured after 48 hrs relative to control
[6] = Inhibition of RTK/PI3K/AKT/mTOR signaling in human U87 cells assessed as down regulation of STRIP1 gene expression at cytotoxic IC50 measured after 48 hrs relative to control
[7] = Inhibition of RTK/PI3K/AKT/mTOR signaling in human U87 cells assessed as down regulation of LRRC57 gene expression at cytotoxic IC50 measured after 48 hrs relative to control
[8] = Inhibition of RTK/PI3K/AKT/mTOR signaling in human U87 cells assessed as down regulation of SELENOK gene expression at cytotoxic IC50 measured after 48 hrs relative to control
[9] = Inhibition of RTK/PI3K/AKT/mTOR signaling in human U87 cells assessed as down regulation of PRKAB2 gene expression at cytotoxic IC50 measured after 48 hrs relative to control
[10] = Inhibition of RTK/PI3K/AKT/mTOR signaling in human U87 cells assessed as down regulation of RALGAPB gene expression at cytotoxic IC50 measured after 48 hrs relative to control
[11] = Inhibition of RTK/PI3K/AKT/mTOR signaling in human U87 cells assessed as down regulation of MAFG gene expression at cytotoxic IC50 measured after 48 hrs relative to control
[12] = Inhibition of RTK/PI3K/AKT/mTOR signaling in human U87 cells assessed as down regulation of TCP1 gene expression at cytotoxic IC50 measured after 48 hrs relative to control
[13] = Inhibition of RTK/PI3K/AKT/mTOR signaling in human U87 cells assessed as down regulation of TADA2B gene expression at cytotoxic IC50 measured after 48 hrs relative to control
[14] = Inhibition of RTK/PI3K/AKT/mTOR signaling in human U87 cells assessed as down regulation of SLC30A1 gene expression at cytotoxic IC50 measured after 48 hrs relative to control
[15] = Inhibition of RTK/PI3K/AKT/mTOR signaling in human U87 cells assessed as down regulation of SF3A1 gene expression at cytotoxic IC50 measured after 48 hrs relative to control
[16] = Inhibition of RTK/PI3K/AKT/mTOR signaling in human U87 cells assessed as down regulation of COTL1 gene expression at cytotoxic IC50 measured after 48 hrs relative to control
[17] = Inhibition of RTK/PI3K/AKT/mTOR signaling in human U87 cells assessed as up regulation of SLC38A5 gene expression at cytotoxic IC50 measured after 48 hrs relative to control
[18] = Inhibition of RTK/PI3K/AKT/mTOR signaling in human U87 cells assessed as up regulation of SLC19A1 gene expression at cytotoxic IC50 measured after 48 hrs relative to control
[19] = Inhibition of RTK/PI3K/AKT/mTOR signaling in human U87 cells assessed as up regulation of ArfGAP with RhoGAP domain, ankyrin repeat and PH domain 3 gene expression at cytotoxic IC50 measured after 48 hrs relative to control
[20] = Inhibition of RTK/PI3K/AKT/mTOR signaling in human U87 cells assessed as up regulation of family with sequence similarity 71 member E1 gene expression at cytotoxic IC50 measured after 48 hrs relative to control
[21] = Inhibition of RTK/PI3K/AKT/mTOR signaling in human U87 cells assessed as up regulation of complement C1r subcomponent like gene expression at cytotoxic IC50 measured after 48 hrs relative to control
[22] = Inhibition of RTK/PI3K/AKT/mTOR signaling in human U87 cells assessed as up regulation of salvador family WW domain containing protein 1 gene expression at cytotoxic IC50 measured after 48 hrs relative to control
[23] = Inhibition of RTK/PI3K/AKT/mTOR signaling in human U87 cells assessed as up regulation of notchless homolog 1 gene expression at cytotoxic IC50 measured after 48 hrs relative to control
[24] = Inhibition of RTK/PI3K/AKT/mTOR signaling in human U87 cells assessed as up regulation of PEST proteolytic signal containing nuclear protein gene expression at cytotoxic IC50 measured after 48 hrs relative to control
[25] = Inhibition of RTK/PI3K/AKT/mTOR signaling in human U87 cells assessed as up regulation of roundabout guidance receptor 3 gene expression at cytotoxic IC50 measured after 48 hrs relative to control
[26] = Inhibition of RTK/PI3K/AKT/mTOR signaling in human U87 cells assessed as up regulation of cardiolipin synthase 1 gene expression at cytotoxic IC50 measured after 48 hrs relative to control
[27] = Inhibition of RTK/PI3K/AKT/mTOR signaling in human U87 cells assessed as up regulation of bromodomain and WD repeat domain containing 3 gene expression at cytotoxic IC50 measured after 48 hrs relative to control
[28] = Inhibition of RTK/PI3K/AKT/mTOR signaling in human U87 cells assessed as up regulation of glutamate dehydrogenase 1 gene expression at cytotoxic IC50 measured after 48 hrs relative to control
[29] = Inhibition of RTK/PI3K/AKT/mTOR signaling in human U87 cells assessed as up regulation of ribosome production factor 2 homolog gene expression at cytotoxic IC50 measured after 48 hrs relative to control
[30] = Inhibition of RTK/PI3K/AKT/mTOR signaling in human U87 cells assessed as up regulation of MTHFD2 gene expression at cytotoxic IC50 measured after 48 hrs relative to control
[31] = Inhibition of RTK/PI3K/AKT/mTOR signaling in human U87 cells assessed as up regulation of DDX46 gene expression at cytotoxic IC50 measured after 48 hrs relative to control
[32] = Inhibition of RTK/PI3K/AKT/mTOR signaling in human U87 cells assessed as up regulation of APP gene expression at cytotoxic IC50 measured after 48 hrs relative to control

Structure (SMILES): CC(=O)C(=NNc1ccccc1C#N)C(C)=O
- log2FC [1]: -3.54
- log2FC [2]: -2.77
- log2FC [3]: -1.34
- log2FC [4]: -1.11
- log2FC [5]: -1.11
- log2FC [6]: -0.856
- log2FC [7]: -0.744
- log2FC [8]: -0.738
- log2FC [9]: -0.692
- log2FC [10]: -0.664
- log2FC [11]: -0.65
- log2FC [12]: -0.602
- log2FC [13]: -0.57
- log2FC [14]: -0.523
- log2FC [15]: -0.431
- log2FC [16]: -0.401
- log2FC [17]: 2.56
- log2FC [18]: 2.21
- log2FC [19]: 1.51
- log2FC [20]: 1.47
- log2FC [21]: 1.2
- log2FC [22]: 0.95
- log2FC [23]: 0.915
- log2FC [24]: 0.914
- log2FC [25]: 0.911
- log2FC [26]: 0.901
- log2FC [27]: 0.732
- log2FC [28]: 0.669
- log2FC [29]: 0.648
- log2FC [30]: 0.524
- log2FC [31]: 0.495
- log2FC [32]: 0.394
